Record: PubChem BioAssay AID493246 (Drosophila RNAi Screening Center, 2011)

Test: 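Genes fly cells need to grow and stay alive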 (primary screen)
Cells: Drosophila Kc and S2R+ cells
Reagents: long dsRNA against Drosophila genes
Read-out: 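Raw, unnormalised count of remaining cells in each well; per-plate z-scores of cell number underlie the calls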
Scale: Kc cell number and S2R+ cell number: higher = more cells remaining
Hit rule: 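Active when the per-plate z-score of cell number is 3 or more in the direction of fewer cells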
The screen tested about 21,000 reagents; shown is a random part of those with a known target gene and a result. Over the whole deposit, 429 (2%) were called active. 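Values are raw and not normalised between plates; calls rest on per-plate z-scores that were not deposited.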 A number with no mark means an inactive call. A plus sign joins genes that one reagent is predicted to hit. Not stated in the record: the amount of reagent, the time to read-out.

For CG18324 [DRSC06721], what does the deposit list?
Kc cell number, rep 1: 1.41e6; Kc cell number, rep 2: 1.43e6; S2R+ cell number, rep 1: 1.14e6; S2R+ cell number, rep 2: 1.18e6

With Cul2 (Cullin 2) [DRSC03710], what does the deposit list?
Kc cell number, rep 1: 1.33e6; Kc cell number, rep 2: 1.46e6; S2R+ cell number, rep 1: 1.09e6; S2R+ cell number, rep 2: 1.15e6

For CG34238 [DRSC09040], how do the results read?
Kc cell number, rep 1: 1.40e6; Kc cell number, rep 2: 1.43e6; S2R+ cell number, rep 1: 1.12e6; S2R+ cell number, rep 2: 1.21e6

For Tao [DRSC19573], what was measured?
Kc cell number, rep 1: 1.42e6; Kc cell number, rep 2: 1.52e6; S2R+ cell number, rep 1: 1.00e6; S2R+ cell number, rep 2: 1.10e6

What did the screen give for Tao [DRSC19574]?
Kc cell number, rep 1: 1.53e6; Kc cell number, rep 2: 1.50e6; S2R+ cell number, rep 1: 1.01e6; S2R+ cell number, rep 2: 1.21e6

With Hs3st-B (Heparan sulfate 3-O sulfotransferase-B) [DRSC20067], what was measured?
Kc cell number, rep 1: 1.55e6; Kc cell number, rep 2: 1.58e6; S2R+ cell number, rep 1: 1.11e6; S2R+ cell number, rep 2: 1.21e6

How did the screen score PsGEF (Protostome-specific GEF) [DRSC18596]?
Kc cell number, rep 1: 1.48e6; Kc cell number, rep 2: 1.49e6; S2R+ cell number, rep 1: 8.75e5; S2R+ cell number, rep 2: 1.01e6

For cathD (cathepsin D) [DRSC07588], what does the deposit list?
Kc cell number, rep 1: 1.58e6; Kc cell number, rep 2: 1.64e6; S2R+ cell number, rep 1: 1.27e6; S2R+ cell number, rep 2: 1.36e6

With Mgat1 [DRSC07463], what was measured?
Kc cell number, rep 1: 1.64e6; Kc cell number, rep 2: 1.48e6; S2R+ cell number, rep 1: 9.88e5; S2R+ cell number, rep 2: 1.26e6

With CG34309 [DRSC14838], what does the deposit list?
Kc cell number, rep 1: 1.45e6; Kc cell number, rep 2: 1.45e6; S2R+ cell number, rep 1: 1.12e6; S2R+ cell number, rep 2: 1.22e6

For Syx7 (Syntaxin 7) [DRSC11763], what does the deposit list?
Kc cell number, rep 1: 1.52e6; Kc cell number, rep 2: 1.56e6; S2R+ cell number, rep 1: 1.21e6; S2R+ cell number, rep 2: 1.23e6

With CG13272 [DRSC02249], what does the deposit list?
Kc cell number, rep 1: 1.49e6; Kc cell number, rep 2: 1.54e6; S2R+ cell number, rep 1: 1.22e6; S2R+ cell number, rep 2: 1.29e6

How did the screen score CG18258 [DRSC19798]?
Kc cell number, rep 1: 1.49e6; Kc cell number, rep 2: 1.53e6; S2R+ cell number, rep 1: 1.22e6; S2R+ cell number, rep 2: 1.35e6

What did the screen give for Nubp1 (NUBP iron-sulfur cluster assembly factor 1) [DRSC02639]?
Kc cell number, rep 1: 1.38e6; Kc cell number, rep 2: 1.43e6; S2R+ cell number, rep 1: 1.40e6; S2R+ cell number, rep 2: 1.38e6

With Atu (Another transcription unit) [DRSC12123], what does the deposit list?
Kc cell number, rep 1: 1.67e6; Kc cell number, rep 2: 1.77e6; S2R+ cell number, rep 1: 1.21e6; S2R+ cell number, rep 2: 1.24e6

With CG7730 [DRSC10909], how do the results read?
Kc cell number, rep 1: 1.50e6; Kc cell number, rep 2: 1.51e6; S2R+ cell number, rep 1: 1.26e6; S2R+ cell number, rep 2: 1.29e6

For ClC-b (Chloride channel-b) [DRSC07220], how do the results read?
Kc cell number, rep 1: 1.61e6; Kc cell number, rep 2: 1.75e6; S2R+ cell number, rep 1: 1.36e6; S2R+ cell number, rep 2: 1.52e6

How did the screen score CG42755 (retired record) [DRSC09105]?
Kc cell number, rep 1: 1.48e6; Kc cell number, rep 2: 1.70e6; S2R+ cell number, rep 1: 1.10e6; S2R+ cell number, rep 2: 1.25e6

With CG42755 (retired record) [DRSC09106], how do the results read?
Kc cell number, rep 1: 1.46e6; Kc cell number, rep 2: 1.56e6; S2R+ cell number, rep 1: 1.02e6; S2R+ cell number, rep 2: 1.23e6

How did the screen score Skp2 + CG1103 [DRSC12160]?
Kc cell number, rep 1: 1.84e6; Kc cell number, rep 2: 1.93e6; S2R+ cell number, rep 1: 1.33e6; S2R+ cell number, rep 2: 1.42e6

What did the screen give for Snm1 [DRSC12130]?
Kc cell number, rep 1: 1.49e6; Kc cell number, rep 2: 1.60e6; S2R+ cell number, rep 1: 1.19e6; S2R+ cell number, rep 2: 1.26e6

With Rab32 [DRSC05146], what was measured?
Kc cell number, rep 1: 1.45e6; Kc cell number, rep 2: 1.53e6; S2R+ cell number, rep 1: 9.45e5; S2R+ cell number, rep 2: 1.02e6

With Rab32 [DRSC07522], how do the results read?
Kc cell number, rep 1: 1.21e6; Kc cell number, rep 2: 1.25e6; S2R+ cell number, rep 1: 9.98e5; S2R+ cell number, rep 2: 1.05e6

What did the screen give for Rab19 [DRSC11260]?
Kc cell number, rep 1: 1.61e6; Kc cell number, rep 2: 1.51e6; S2R+ cell number, rep 1: 1.22e6; S2R+ cell number, rep 2: 1.33e6

For Mon1 (Monensin sensitivity 1) [DRSC00336], how do the results read?
Kc cell number, rep 1: 1.68e6; Kc cell number, rep 2: 1.59e6; S2R+ cell number, rep 1: 1.14e6; S2R+ cell number, rep 2: 1.33e6

For ERp60 (Endoplasmic reticulum p60) [DRSC07309], what does the deposit list?
Kc cell number, rep 1: 1.37e6; Kc cell number, rep 2: 1.53e6; S2R+ cell number, rep 1: 2.42e5; S2R+ cell number, rep 2: 9.92e5

How did the screen score Dtwd2 (DTW domain containing 2) [DRSC12501]?
Kc cell number, rep 1: 1.64e6; Kc cell number, rep 2: 1.95e6; S2R+ cell number, rep 1: 1.28e6; S2R+ cell number, rep 2: 1.41e6

Only “Kc cell number, rep 2” (4 entries from above):
Hs3st-B (Heparan sulfate 3-O sulfotransferase-B) [DRSC20067] = 1.58e6
PsGEF (Protostome-specific GEF) [DRSC18596] = 1.49e6
cathD (cathepsin D) [DRSC07588] = 1.64e6
Mgat1 [DRSC07463] = 1.48e6
